Among all 580,000 compounds or so, about 6,100 (1.1%) were called active. The shares of active, inactive and inconclusive entries below differ from those in the screen. Calls come from the whole dose curve; as a rule, active = well fitted inhibition curve with a large enough effect; inconclusive = small, poorly fitted or top-dose-only effect, or another doubt; inactive = no such curve, though single readings can be large or run the other way. A potency beside an inconclusive call is a rough fit, not a confirmed value.
These molecules were tested against Polyunsaturated fatty acid lipoxygenase ALOX12 (Homo sapiens) (UniProt P18054) (assay: Primary qHTS assay for inhibitors of human arachidonate 12S-lipoxygenase (ALOX12): Round 2). Settings: purified 12hLO, xylenol orange hydroperoxide absorbance; activity change, negative = inhibition: at 108 µM (top of the series) unless noted.
In short: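 Purified human 12hLO at 150 nM in 25 mM Hepes, 0.01% Triton X-100, pH 7.0, preincubated 15 min at room temperature with compound. Reaction started with 40 uM arachidonic acid, 30 min at room temperature. Hydroperoxide measured by Fe-xylenol orange, 573/405 nm absorbance ratio.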
% is set by controls: 0 for no effect and ±100 for the full control effect; potency is the fitted concentration of half-maximal effect.

Amino acid sequences for entries named in this document (tags omitted). A change or cut given only in a name is not applied to a line headed by its entry.
UniProt P18054: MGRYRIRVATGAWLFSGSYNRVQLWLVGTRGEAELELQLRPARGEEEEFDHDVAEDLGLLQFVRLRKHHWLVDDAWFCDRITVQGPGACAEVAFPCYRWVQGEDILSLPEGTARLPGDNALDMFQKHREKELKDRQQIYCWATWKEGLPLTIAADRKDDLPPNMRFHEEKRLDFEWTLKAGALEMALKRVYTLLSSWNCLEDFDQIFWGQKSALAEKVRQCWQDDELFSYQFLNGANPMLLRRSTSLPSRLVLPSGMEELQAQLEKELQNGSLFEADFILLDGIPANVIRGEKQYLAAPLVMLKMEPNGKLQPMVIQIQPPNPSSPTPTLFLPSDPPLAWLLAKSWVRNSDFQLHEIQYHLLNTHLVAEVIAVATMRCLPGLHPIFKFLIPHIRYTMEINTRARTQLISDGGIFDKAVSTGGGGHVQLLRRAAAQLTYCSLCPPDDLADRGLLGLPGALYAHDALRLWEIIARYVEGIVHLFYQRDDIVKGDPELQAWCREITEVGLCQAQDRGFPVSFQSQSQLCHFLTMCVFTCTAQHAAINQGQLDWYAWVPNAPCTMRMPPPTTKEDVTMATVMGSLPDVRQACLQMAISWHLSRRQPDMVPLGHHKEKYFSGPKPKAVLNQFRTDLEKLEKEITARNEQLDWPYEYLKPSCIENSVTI

Structure (SMILES) | activity change, negative = inhibition | Potency
COC(=O)C1=C(C)N=C2SC=C(CC(=O)NCc3ccco3)N2C1c1cccc(OC)c1 (configuration not stated) | inactive: 67% | 
COc1ccccc1-n1c(SCC(=O)c2ccc(O)cc2O)nc2cc([N+](=O)[O-])ccc21 |  | inconclusive: 44.7 µM [inhibitor, partial curve, poor fit]
O=C(Nc1cccc(Cl)c1)ON1CCCCC1 |  | inconclusive: 50.1 µM [inhibitor, partial curve, poor fit]
CC(C)(CNC(=O)c1ccco1)CNC(=O)c1ccco1 | inactive: 3.9% | 
Cn1c(=O)c2c(ncn2Cc2ccc(Br)cc2)n(C)c1=O |  | inconclusive: 56.2 µM [inhibitor, partial curve, poor fit]
CCOc1ccccc1N(CC)C(=O)Cn1ncc2c([nH]c3ccccc32)c1=O |  | inconclusive: 158 µM [inhibitor, partial curve, poor fit]
Cn1c(-c2cc3c(C(F)(F)F)nn(C)c3s2)n[nH]c1=S |  | inconclusive: 35.5 µM [inhibitor, partial curve, poor fit]
CCC(C)c1ccc(S(=O)(=O)Nc2cccnc2)cc1 (configuration not stated) |  | inconclusive: 5.01 µM [inhibitor, full curve, poor fit]
Cc1ccc(C(Nc2ccccc2)c2ccc3ccc(C)nc3c2O)c(C)c1 (configuration not stated) | inactive: -12.5% | 
N#Cc1ccc(Cl)cc1N=C/C(Br)=C/c1ccccc1 |  | inconclusive: 0.501 µM [inhibitor, full curve, poor fit]
COc1ccc(-c2cc3ccc(O)cc3oc2=O)cc1 |  | inconclusive: 50.1 µM [inhibitor, single point]
Clc1cccc(-c2ccc(CNCCSc3nnnn3-c3ccccc3)o2)c1 |  | inconclusive: 79.4 µM [inhibitor, partial curve, poor fit]
C=CCSc1ncc(C(=O)OCC)c(N)n1 | inactive: 4.76% | 
Nc1ncnc2c1ncn2[C@@H]1O[C@H](C(=O)N2CCC[C@@H]2C(=O)OCc2ccccc2)[C@@H](O)[C@H]1O |  | inconclusive: 141 µM [inhibitor, single point]
O=C1/C(=C\c2ccccc2)CCc2ccccc21 | inactive: 2.4% | 
COC(=O)c1cccc(Cn2c(Cl)c(/C=N/Nc3ccccc3C)sc2=O)c1 |  | inconclusive: 0.794 µM [inhibitor, full curve, poor fit]
Cc1cc(OCC(=O)O)c2cccc(C)c2n1 |  | inconclusive: 56.2 µM [inhibitor, partial curve, poor fit]
COC(=O)C1CSc2[nH]c(=O)sc2C1c1ccccc1 (configuration not stated) |  | inconclusive: 39.8 µM [inhibitor, partial curve]
COc1ccc(Nc2ncnc3sc(-c4ccccc4)cc23)cc1 |  | inconclusive: 89.1 µM [inhibitor, partial curve, poor fit]

Structure (SMILES) | activity change, negative = inhibition | Potency
COC(=O)c1sccc1N/N=C/c1ccc(OC)c(OC)c1OC |  | inconclusive: 79.4 µM [inhibitor, partial curve, poor fit]
O=C1COc2ccc(Nc3cccnc3)nc2CN1Cc1ccc(C(F)(F)F)cc1 | inactive: 6.82% [at 176 µM] | 
CCOC(=O)COc1coc(CN2CCN(c3cccc(Cl)c3)CC2)cc1=O | inactive: -4.56% | 
NC(=S)N1OC[C@@H]2COc3ccc4ccccc4c3[C@@H]21 | inactive: -12.3% | 
Cc1nc([C@@H]2CN(C(=O)c3nccc4ccccc34)C[C@H]2C(N)=O)n[nH]1 | inactive: 37.7% | 
COC(=O)N1c2ccccc2CCc2ccccc21 |  | inconclusive: 3.16 µM [inhibitor, full curve, poor fit]
CN(Cc1ccccc1)C(=O)c1nccnc1N | inactive: 4.2% | 
C=CCOc1ccc(C2c3c(oc4ccccc4c3=O)C(=O)N2CCCN2CCOCC2)cc1 (configuration not stated) |  | inconclusive: 39.8 µM [inhibitor, partial curve, poor fit]
O=C(NC1Cc2ccccc2C1)c1ccccc1F |  | inconclusive: 0.355 µM [inhibitor, full curve, poor fit]
CCCSc1ncc(Cl)c(C(=O)Nc2ccc(S(=O)(=O)N(C)c3ccccc3)cc2)n1 |  | inconclusive: 158 µM [inhibitor, partial curve, poor fit]
NCc1ccc(Br)cc1C(F)(F)F | inactive: 4.52% | 
C=CCNC(=O)N[C@H]1[C@H](O)[C@@H](N2CCCC2)[C@@H]2OC[C@H]1O2 | inactive: -0.196% [at 176 µM] | 
Cc1cc2nn(CC(=O)N3CCCC3)c(=O)n2c(N2CCc3ccccc3C2)n1 | inactive: 5.37% | 
CCCCn1c(=O)[nH]c(=O)c2c1nc(COc1cc(Cl)ccc1Cl)n2CCC | inactive: -8.92% | 
O=C(CC(c1ccccc1)c1cc(Cl)ccc1O)NCCCN1CCOCC1 (configuration not stated) |  | inconclusive: 79.4 µM [inhibitor, single point]
O=C(O)c1ccc(-c2nc(-c3ccc(Cl)cc3Cl)cs2)cc1 |  | inconclusive: 44.7 µM [inhibitor, partial curve, poor fit]
Cc1ccc(OCc2nc(C3CN(C(=O)c4cc(C)n(C)n4)C3)no2)cc1 | inactive: 46.1% | 
O=C(COC(=O)Cc1ccccc1[N+](=O)[O-])NCc1ccc(Cl)cc1 |  | inconclusive: 50.1 µM [inhibitor, partial curve, poor fit]

Quoted from the listing.
activity change, negative = inhibition with Cc1ccc(OCc2nc(C3CN(C(=O)c4cc(C)n(C)n4)C3)no2)cc1 is entered as inactive: 46.1%
activity change, negative = inhibition with CCCCn1c(=O)[nH]c(=O)c2c1nc(COc1cc(Cl)ccc1Cl)n2CCC is entered as inactive: -8.92%

Reference: PubChem BioAssay AID1671190 (National Center for Advancing Translational Sciences (NCATS), 2021)
